# Residue numbers refer to the chain shown, from its start. No constants are given. Whether binding was seen depends on the method and setting. Some entries that bind do so weakly or less than the wild type.
# T1: canine IL-4 receptor alpha (IL-4Rα), protein used in ELISA and in epitope mapping (canine)
# T1 sequence: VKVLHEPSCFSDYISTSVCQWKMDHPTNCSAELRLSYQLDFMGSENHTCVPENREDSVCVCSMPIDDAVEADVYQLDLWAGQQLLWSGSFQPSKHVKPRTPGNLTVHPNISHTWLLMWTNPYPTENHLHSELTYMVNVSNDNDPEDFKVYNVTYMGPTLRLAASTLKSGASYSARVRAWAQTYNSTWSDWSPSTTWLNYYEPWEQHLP
# B1: c152C1L1-H1 (antibody, V domains shown)
# VH: EVQLVESGGDLVKPGGSLRLSCAASGFTFSSYGMSWVRQAPGKGLQWVATISRGGDYTYYPDSVKGRFTISRDNAKNTLYLQMNSLRAEDTAMYYCAKGTLNNRGFACWGQGTLVTVSS
# VL: QSVLTQPASVSGSLGQRVTISCKASQNVGTNVAWYQQLPGTSPRTLIYSASYRYSGVPDRFSGSRSGSTATLTISGLQAEDEADYYCQQYNSYPYTFGGGTHLTVLG
# B2: c152H11-H3L3 (c152H11VL3-cCLk-s/c152H11VH3-cIgG-Bm) (antibody, V domains shown)
# VH: B1 VH with G42D, G44R, K98R, C108S
# VL: EIVMTQSPASLSLSQEEKVTITCKASQNVGTNVAWYQQKPGQAPKLLIYSASYRYSGLPDRFSGSGSGTDFSFTISSLEPEDVAEFFCQQYNSYPYTFGQGTKLEIKR
# notes: Caninized anti-canine IL-4R alpha antibody: VH3 heavy chain on modified canine IgG-B (IgG-Bm), kappa light chain L3
# B3: c152C1L1-H2 (antibody, V domains shown)
# VH: B1 VH with G42D, G44R, K98R
# VL: B1 VL
# B4: c152C1L1-H3 (antibody, V domains shown)
# VH: B1 VH with G42D, G44R, K98R, C108S
# VL: B1 VL
# Target: T1, canine IL-4 receptor alpha (IL-4Rα), protein used in ELISA and in epitope mapping (canine)
# Experiment: ELISA
row,binding,Binder
1,binds,B1
2,binds,B2
3,binds,B3
4,binds,B4

# Target: T1, canine IL-4 receptor alpha (IL-4Rα), protein used in ELISA and in epitope mapping (canine)
# Experiment: ELISA (FIG. 3)
row,binding,Binder
1,binds,B2
2,binds,B4
